The text below walks through data of article PMC12241546, “PRELP functions via multiple interactions with intrinsically weak affinity relying on ECM anchoring and remodeling” (Scientific Reports, 2025).

By UniProt entry, the sequences of proteins in these tests, tags left out. Residues count along the entry.
UniProt P01137, residues 279-390: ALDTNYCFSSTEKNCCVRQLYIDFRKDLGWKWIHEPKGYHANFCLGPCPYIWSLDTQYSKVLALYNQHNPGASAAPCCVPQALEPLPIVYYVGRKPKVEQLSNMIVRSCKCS
UniProt Q05793, residues 22-3707: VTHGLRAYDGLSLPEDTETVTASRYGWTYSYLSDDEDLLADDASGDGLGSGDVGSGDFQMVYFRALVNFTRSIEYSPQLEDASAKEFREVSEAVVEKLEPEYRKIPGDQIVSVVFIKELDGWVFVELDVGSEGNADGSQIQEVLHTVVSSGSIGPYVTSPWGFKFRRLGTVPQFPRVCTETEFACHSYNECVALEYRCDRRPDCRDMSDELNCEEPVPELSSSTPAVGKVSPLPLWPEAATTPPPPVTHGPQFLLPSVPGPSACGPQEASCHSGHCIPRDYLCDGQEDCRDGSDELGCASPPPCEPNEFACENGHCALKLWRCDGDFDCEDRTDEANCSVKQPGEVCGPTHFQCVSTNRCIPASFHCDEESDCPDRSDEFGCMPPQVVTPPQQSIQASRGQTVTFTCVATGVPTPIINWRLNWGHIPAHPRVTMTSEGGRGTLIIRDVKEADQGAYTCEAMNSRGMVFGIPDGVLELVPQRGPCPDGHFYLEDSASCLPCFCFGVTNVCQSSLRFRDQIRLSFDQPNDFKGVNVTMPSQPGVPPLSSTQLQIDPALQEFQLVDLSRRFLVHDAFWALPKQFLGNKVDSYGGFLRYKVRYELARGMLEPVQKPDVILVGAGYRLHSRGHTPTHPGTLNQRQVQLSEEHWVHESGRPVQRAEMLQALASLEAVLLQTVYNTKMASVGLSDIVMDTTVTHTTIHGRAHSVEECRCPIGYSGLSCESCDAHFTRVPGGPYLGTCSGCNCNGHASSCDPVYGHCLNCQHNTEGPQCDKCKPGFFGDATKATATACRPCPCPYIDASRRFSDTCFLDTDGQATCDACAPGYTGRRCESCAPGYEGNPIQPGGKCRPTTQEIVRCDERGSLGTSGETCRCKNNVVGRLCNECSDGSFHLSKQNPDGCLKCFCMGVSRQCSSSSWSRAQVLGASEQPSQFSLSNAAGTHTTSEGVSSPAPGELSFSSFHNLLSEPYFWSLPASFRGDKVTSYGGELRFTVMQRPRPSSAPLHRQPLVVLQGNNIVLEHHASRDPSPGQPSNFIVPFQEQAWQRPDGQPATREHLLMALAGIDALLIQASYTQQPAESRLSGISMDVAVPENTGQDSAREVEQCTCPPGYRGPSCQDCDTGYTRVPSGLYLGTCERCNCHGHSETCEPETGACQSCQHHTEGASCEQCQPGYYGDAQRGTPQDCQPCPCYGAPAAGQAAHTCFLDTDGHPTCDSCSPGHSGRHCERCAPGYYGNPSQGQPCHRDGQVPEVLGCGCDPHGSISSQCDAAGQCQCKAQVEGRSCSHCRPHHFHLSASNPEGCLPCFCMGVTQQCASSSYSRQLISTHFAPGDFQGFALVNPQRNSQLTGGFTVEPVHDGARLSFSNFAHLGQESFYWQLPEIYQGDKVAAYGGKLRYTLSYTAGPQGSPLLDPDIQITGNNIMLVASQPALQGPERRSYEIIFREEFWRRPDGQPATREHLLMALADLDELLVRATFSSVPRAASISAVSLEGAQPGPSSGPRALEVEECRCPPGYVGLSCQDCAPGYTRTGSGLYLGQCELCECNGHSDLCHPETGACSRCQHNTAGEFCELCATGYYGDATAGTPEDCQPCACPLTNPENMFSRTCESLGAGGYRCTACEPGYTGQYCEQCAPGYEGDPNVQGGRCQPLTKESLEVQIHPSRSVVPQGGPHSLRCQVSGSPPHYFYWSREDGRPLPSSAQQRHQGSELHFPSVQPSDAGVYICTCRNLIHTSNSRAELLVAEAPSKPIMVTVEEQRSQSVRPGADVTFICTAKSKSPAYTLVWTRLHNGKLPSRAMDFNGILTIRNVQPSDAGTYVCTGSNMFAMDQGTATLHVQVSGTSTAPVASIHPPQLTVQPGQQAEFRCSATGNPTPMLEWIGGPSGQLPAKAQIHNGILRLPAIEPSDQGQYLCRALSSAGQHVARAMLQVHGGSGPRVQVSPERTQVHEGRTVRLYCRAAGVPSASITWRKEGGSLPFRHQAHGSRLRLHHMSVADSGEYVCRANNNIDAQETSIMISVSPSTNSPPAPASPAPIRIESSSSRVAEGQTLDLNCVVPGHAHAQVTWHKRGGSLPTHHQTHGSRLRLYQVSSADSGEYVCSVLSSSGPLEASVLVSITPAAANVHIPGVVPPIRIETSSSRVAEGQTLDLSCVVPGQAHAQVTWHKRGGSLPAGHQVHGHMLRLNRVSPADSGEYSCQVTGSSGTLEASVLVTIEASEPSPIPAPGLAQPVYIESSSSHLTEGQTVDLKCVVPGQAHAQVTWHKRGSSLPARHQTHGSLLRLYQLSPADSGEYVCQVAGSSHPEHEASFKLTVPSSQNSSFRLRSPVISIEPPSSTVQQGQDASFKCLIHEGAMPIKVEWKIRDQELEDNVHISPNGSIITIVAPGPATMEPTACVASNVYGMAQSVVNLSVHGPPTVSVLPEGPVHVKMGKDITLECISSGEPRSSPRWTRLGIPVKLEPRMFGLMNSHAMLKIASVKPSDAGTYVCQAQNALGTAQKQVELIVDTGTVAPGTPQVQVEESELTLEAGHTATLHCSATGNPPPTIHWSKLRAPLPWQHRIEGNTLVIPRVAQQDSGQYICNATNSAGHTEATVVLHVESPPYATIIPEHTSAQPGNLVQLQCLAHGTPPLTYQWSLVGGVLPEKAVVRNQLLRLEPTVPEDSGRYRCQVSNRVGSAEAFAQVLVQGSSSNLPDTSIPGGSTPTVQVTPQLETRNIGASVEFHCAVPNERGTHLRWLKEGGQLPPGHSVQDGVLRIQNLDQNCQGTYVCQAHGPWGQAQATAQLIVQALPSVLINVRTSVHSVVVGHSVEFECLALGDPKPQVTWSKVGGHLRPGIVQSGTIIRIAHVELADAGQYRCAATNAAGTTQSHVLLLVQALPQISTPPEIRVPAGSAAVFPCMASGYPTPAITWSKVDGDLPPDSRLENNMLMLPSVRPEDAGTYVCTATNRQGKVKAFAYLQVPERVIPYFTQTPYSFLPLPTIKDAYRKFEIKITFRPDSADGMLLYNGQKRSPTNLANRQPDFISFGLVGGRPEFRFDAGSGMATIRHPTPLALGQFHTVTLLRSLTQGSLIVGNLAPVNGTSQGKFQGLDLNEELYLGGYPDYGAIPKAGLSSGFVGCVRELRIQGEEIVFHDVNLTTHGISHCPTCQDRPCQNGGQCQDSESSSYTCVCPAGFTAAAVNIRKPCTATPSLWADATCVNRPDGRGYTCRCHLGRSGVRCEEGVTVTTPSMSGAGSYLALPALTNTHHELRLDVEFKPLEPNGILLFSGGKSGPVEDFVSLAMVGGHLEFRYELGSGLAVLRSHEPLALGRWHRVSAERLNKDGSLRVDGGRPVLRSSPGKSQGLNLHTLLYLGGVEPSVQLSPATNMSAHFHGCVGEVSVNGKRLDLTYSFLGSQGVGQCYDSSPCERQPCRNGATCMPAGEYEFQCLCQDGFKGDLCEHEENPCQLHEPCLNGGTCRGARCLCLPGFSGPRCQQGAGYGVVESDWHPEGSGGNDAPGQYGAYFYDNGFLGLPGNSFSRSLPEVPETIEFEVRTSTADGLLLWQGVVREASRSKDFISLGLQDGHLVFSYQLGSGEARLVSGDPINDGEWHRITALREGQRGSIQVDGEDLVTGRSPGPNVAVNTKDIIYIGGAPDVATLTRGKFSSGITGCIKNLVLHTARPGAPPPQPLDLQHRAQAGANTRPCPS

Test [1] deals with Recombinant mature TGFβ1 dimer (transforming growth factor β1) (human) (UniProt P01137). The test can be described thus: SPR; p75NTR with TGFβ1 (Supplementary Fig. S13); who was immobilised is not stated; both purified.
For a further test, the target named is mouse perlecan (mouse) (UniProt Q05793). The test can be described thus: ELISA; wells coated with fibronectin (5 µg/mL), perlecan (1 µg/mL) or collagen (5 µg/mL) in PBS; a range of concentrations of full-length PRELP in 10 mM HEPES pH 7.5, 150 mM NaCl, 0.05% Tween-20, room temperature, 1 h; detected with anti-DDDDK-tag mAb HRP; both purified. In general terms: In an ELISA, binding on a coated surface is turned into a signal by an enzyme label.

These are yes or no findings as the source states them, for the method shown. Some results given as binding are weak or reduced against the parent protein; the word gives no strength.

B1: Recombinant extracellular domain of human p75NTR (low-affinity nerve growth factor receptor) (receptor, UniProt P08138 29-189, looked up)
chain: KEACPTGLYTHSGECCKACNLGEGVAQPCGANQTVCEPCLDSVTFSDVVSATEPCKPCTECVGLQSMSAPCVEADDAVCRCAYGYYQDETTGRCEACRVCEAGSGLVFSCQDKQNTVCEECPDGTYSDEANHVDPCLPCTVCEDTERQLRECTRWADAECE
notes: also called p75NTR ectodomain; source: Sf9 cells, purified from the culture supernatant (Ni-NTA, SEC)
As to B1, in test [1], the binding entry is “binds weakly”.

B2: Recombinant human full-length PRELP (proline/arginine-rich end leucine-rich repeat protein) (natural protein, UniProt P51888 21-382, looked up)
chain: QPTRRPRPGTGPGRRPRPRPRPTPSFPQPDEPAEPTDLPPPLPPGPPSIFPDCPRECYCPPDFPSALYCDSRNLRKVPVIPPRIHYLYLQNNFITELPVESFQNATGLRWINLDNNRIRKIDQRVLEKLPGLVFLYMEKNQLEEVPSALPRNLEQLRLSQNHISRIPPGVFSKLENLLLLDLQHNRLSDGVFKPDTFHGLKNLMQLNLAHNILRKMPPRVPTAIHQLYLDSNKIETIPNGYFKSFPNLAFIRLNYNKLTDRGLPKNSFNISNLLVLHLSHNRISSVPAINNRLEHLYLNNNSIEKINGTQICPNDLVAFHDFSSDLENVPHLRYLRLDGNYLKPPIPLDLMMCFRLLQSVVI
notes: human PRELP, amino acid residues 21-382 (Uniprot numbering); source: Mimic Sf9 cells, purified from the supernatant (DDDDK-tagged Protein Purification Gel, Benzonase, SEC); not shown: FLAG, C-terminal, kept
On to B2, for which the binding result with mouse perlecan (mouse) is “binds”.
